Test results: paper PMC10458647

Molecular target: TaHY5-7A (ELONGATED HYPOCOTYL 5-7A) in pGBKT7 (Triticum aestivum)
Assay: two-hybrid; yeast Y2HGold; bait in pGBKT7, prey in pGADT7; growth on SD/-Leu/-Trp/-His/-Ade and SD/-Leu/-Trp/-His/-Ade/X-α-Gal medium

- binding: binds
Substance: TaBBX-3B (B-BOX-3B) in pGADT7 (from UniProt A0A3B6FJT2)

No constants are given. Whether binding was seen depends on the method and setting. Binding can be weak; no strength is given.
